In the supplement of paper PMC12067093, “Discovery and optimisation of a covalent ligand for TRIM25 and its application to targeted protein ubiquitination” (Chemical Science, 2025):
The other results are listed elsewhere or left out.

Amino acid sequences for entries named in this document (tags omitted). A change or cut given only in a name is not applied to a line headed by its entry.
UniProt Q12767: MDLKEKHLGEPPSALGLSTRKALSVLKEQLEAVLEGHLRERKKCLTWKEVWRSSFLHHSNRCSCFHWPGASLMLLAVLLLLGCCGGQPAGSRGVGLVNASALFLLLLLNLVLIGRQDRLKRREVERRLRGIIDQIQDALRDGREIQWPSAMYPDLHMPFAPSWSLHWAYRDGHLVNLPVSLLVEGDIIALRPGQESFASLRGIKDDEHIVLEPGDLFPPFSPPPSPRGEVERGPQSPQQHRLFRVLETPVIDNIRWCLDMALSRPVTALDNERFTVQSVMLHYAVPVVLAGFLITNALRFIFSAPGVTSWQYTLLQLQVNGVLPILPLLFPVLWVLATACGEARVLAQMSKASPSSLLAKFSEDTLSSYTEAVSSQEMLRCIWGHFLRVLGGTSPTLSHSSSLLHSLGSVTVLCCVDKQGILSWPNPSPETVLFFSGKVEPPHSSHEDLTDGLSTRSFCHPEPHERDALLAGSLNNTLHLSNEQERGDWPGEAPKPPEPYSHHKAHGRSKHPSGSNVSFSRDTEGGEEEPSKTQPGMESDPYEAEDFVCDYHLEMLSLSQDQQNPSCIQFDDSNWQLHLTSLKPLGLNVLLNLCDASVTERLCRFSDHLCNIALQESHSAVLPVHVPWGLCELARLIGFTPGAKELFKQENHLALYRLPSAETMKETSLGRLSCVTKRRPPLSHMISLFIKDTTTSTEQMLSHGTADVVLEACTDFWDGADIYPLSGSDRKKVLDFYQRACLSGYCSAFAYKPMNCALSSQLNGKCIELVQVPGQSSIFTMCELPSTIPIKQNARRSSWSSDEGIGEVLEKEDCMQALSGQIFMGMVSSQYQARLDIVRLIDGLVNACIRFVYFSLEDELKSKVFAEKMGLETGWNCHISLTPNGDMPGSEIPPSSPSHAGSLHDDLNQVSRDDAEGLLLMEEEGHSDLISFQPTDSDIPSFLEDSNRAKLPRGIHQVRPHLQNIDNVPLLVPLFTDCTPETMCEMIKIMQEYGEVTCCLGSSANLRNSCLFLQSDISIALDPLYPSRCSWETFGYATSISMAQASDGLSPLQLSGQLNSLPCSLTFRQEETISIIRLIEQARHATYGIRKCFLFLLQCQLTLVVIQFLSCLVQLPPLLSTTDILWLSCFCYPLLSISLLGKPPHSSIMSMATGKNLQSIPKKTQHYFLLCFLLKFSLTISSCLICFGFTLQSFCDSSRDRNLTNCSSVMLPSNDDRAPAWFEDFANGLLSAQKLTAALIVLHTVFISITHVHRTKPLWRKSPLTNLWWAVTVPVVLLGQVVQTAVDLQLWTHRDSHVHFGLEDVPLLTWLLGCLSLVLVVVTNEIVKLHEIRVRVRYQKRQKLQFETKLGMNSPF
UniProt Q96DC7: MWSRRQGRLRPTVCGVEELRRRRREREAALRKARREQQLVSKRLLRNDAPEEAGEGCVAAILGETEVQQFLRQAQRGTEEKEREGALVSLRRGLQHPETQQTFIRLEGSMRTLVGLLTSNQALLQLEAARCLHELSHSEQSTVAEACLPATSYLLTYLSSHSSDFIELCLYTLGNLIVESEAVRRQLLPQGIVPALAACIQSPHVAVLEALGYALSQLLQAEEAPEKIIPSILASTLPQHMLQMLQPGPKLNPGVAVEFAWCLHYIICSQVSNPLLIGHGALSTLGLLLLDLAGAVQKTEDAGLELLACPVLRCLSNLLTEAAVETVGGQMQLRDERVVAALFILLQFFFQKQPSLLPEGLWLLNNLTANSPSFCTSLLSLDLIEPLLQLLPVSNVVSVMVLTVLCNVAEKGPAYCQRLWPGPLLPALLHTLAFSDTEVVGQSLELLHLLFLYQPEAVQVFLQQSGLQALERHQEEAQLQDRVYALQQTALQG
UniProt Q9NQ34: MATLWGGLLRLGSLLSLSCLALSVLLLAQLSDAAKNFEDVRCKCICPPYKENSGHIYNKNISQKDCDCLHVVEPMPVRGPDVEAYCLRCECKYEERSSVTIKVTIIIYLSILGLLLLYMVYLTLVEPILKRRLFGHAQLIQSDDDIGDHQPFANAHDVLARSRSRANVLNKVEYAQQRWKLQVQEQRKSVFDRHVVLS
UniProt Q92973: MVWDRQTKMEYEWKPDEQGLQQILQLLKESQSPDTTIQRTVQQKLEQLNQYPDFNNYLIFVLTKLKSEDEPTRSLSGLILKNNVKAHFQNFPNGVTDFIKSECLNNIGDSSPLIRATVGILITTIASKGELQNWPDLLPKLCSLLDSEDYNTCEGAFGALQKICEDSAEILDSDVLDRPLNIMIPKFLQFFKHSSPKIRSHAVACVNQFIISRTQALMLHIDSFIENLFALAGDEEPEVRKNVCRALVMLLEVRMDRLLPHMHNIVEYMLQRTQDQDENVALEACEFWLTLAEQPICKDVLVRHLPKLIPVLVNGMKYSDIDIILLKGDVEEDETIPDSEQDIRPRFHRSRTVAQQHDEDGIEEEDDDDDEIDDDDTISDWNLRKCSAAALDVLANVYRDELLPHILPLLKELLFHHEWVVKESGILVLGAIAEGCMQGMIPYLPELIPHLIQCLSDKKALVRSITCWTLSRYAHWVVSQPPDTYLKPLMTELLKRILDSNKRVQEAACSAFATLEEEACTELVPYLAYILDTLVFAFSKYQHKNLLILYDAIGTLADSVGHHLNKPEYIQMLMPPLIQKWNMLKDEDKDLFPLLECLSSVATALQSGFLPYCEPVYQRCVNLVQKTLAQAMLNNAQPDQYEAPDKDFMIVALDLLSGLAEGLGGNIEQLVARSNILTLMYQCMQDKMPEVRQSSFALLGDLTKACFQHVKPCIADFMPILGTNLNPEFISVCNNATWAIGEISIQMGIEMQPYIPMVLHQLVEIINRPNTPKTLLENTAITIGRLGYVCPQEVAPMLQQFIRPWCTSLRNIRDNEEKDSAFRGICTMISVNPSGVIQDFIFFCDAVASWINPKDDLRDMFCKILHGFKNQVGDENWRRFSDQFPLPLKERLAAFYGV
UniProt A2VDJ0: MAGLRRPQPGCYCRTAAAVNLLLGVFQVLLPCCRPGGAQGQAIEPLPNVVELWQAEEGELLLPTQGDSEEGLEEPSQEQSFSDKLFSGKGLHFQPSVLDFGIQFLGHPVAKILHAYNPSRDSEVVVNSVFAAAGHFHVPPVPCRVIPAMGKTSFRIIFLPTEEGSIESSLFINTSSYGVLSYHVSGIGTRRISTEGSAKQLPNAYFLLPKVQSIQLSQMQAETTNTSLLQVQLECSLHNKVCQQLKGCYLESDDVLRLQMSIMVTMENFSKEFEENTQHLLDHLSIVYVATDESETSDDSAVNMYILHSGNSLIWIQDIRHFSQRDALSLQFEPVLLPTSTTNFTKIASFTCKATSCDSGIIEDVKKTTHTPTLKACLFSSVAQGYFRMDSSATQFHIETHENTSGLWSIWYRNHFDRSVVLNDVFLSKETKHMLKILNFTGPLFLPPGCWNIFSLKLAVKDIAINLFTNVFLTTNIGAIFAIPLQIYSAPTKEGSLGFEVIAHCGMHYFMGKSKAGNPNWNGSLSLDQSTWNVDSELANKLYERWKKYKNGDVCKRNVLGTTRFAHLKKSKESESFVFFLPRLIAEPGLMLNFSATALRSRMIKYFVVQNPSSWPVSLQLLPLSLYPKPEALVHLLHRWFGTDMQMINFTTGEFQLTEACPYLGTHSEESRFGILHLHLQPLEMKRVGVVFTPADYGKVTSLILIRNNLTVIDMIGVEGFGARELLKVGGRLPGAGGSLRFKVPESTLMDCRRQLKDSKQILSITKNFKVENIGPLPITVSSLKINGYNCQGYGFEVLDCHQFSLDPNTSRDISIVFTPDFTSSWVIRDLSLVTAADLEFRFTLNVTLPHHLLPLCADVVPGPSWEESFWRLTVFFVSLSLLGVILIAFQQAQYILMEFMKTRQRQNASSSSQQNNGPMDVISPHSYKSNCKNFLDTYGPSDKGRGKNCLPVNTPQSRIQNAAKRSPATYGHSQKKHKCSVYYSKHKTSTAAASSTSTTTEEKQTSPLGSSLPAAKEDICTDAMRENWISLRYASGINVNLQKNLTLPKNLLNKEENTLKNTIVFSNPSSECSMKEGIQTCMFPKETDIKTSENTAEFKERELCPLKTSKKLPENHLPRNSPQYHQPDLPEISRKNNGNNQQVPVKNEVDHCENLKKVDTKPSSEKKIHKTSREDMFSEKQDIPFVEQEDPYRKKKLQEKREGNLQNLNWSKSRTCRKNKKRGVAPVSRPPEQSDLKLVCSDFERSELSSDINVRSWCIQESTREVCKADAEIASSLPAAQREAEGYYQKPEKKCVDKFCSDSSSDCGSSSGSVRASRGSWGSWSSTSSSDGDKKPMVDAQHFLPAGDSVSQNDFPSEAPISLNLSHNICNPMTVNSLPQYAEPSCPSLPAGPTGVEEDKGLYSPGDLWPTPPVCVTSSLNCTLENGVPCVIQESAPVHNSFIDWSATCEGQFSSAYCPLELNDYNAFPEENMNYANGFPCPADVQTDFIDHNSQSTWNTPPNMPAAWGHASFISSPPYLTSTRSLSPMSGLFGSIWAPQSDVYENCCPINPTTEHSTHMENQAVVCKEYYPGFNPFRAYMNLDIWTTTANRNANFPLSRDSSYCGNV
UniProt Q92547, whole entry, looked up: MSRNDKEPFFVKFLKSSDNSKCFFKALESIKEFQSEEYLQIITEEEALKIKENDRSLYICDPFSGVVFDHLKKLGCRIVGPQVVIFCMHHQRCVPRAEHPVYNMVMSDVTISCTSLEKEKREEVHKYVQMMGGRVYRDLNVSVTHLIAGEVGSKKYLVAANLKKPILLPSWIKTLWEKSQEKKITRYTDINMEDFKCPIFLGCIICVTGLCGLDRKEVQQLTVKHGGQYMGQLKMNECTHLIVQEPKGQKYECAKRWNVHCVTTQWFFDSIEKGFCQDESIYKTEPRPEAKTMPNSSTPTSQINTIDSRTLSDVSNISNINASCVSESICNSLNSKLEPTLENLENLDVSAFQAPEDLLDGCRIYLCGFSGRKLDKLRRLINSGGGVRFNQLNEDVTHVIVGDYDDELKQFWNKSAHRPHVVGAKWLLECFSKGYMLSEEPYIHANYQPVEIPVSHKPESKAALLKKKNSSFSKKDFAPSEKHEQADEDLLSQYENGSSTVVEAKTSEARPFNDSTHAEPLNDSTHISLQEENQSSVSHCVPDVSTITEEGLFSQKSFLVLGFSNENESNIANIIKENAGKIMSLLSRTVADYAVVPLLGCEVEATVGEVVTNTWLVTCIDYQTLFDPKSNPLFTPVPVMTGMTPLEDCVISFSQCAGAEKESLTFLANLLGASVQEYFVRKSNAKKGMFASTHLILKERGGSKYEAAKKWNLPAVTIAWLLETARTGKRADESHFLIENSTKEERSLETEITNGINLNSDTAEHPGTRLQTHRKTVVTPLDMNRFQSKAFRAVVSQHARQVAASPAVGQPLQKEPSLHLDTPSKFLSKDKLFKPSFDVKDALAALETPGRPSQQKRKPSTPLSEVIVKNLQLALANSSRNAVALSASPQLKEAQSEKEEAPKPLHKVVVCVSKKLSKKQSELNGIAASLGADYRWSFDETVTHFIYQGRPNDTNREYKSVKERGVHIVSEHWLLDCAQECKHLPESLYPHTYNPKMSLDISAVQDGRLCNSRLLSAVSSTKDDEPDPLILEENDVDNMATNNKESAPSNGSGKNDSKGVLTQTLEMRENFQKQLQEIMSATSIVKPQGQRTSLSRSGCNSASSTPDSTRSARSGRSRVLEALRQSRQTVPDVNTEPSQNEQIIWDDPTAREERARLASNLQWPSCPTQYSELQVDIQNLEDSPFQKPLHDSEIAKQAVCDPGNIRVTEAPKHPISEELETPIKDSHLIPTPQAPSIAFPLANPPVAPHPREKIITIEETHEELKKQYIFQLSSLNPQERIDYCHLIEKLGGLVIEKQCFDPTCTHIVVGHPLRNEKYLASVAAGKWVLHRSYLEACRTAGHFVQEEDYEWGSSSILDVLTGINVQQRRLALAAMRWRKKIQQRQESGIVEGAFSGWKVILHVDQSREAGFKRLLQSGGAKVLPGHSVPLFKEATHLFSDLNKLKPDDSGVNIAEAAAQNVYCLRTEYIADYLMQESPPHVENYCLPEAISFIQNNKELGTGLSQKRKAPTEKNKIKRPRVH
UniProt Q6PL24: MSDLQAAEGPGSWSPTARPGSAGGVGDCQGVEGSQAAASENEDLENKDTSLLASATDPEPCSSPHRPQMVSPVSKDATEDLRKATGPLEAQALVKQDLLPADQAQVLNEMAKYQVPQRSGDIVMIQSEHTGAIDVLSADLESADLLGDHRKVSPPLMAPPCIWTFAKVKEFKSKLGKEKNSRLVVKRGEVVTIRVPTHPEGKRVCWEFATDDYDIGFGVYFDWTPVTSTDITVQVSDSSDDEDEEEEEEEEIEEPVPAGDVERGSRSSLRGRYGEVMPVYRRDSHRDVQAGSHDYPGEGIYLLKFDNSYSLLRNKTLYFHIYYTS

compound: CC1Cc2ccccc2N1C(=O)C1CCCN(C1)C(=O)CCl (mixture of isomers) [TRIM25 ligand 11 (diastereomer mixture)]; assay: probe-labelled cysteine peptide fold change vs DMSO (competition) (log2 fold change); higher = less target engagement (more negative = stronger competition); conditions: 50 µM; THP-1; incubation time: 4 h
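Also: competitive chemoproteomic profiling in live THP-1 cells with an iodoacetamide desthiobiotin (IA-DTB) probe, comparing probe-labelled peptide intensities in compound-treated cells against DMSO-treated controls.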

**Q.** With “TP53BP1_Q12888_1040_TMSVLSCICEAR (UniProt Q12888)” as the target, how does the “probe-labelled cysteine peptide fold change” value read?
**A.** -0.52

**Q.** “TOP3B_O95985_442_IGPELFTCSGK (UniProt O95985)” was tested. Which “probe-labelled cysteine peptide fold change” value did it give?
**A.** 0.124

**Q.** For “TMEM94_Q12767_459_SFCHPEPHER (UniProt Q12767)”, which “probe-labelled cysteine peptide fold change” value is on record?
**A.** -0.0281

**Q.** For “TMCO6_Q96DC7_57_NDAPEEAGEGCVAAILGETEVQQFLR (UniProt Q96DC7)”, which “probe-labelled cysteine peptide fold change” value is on record?
**A.** -0.0309

**Q.** “TMEM9B_Q9NQ34_66+68_DCDCLHVVEPMPVR (UniProt Q9NQ34)” was tested. Which “probe-labelled cysteine peptide fold change” value did it give?
**A.** 0.152

**Q.** Which “probe-labelled cysteine peptide fold change” value does the source give for “TMEM161A_Q9NX61_33_WLLCNGSLFR (UniProt Q9NX61)” here?
**A.** 0.164

**Q.** For “TMEM173_Q86WV6_206_LYILLPLDCGVPDNLSMADPNIR (UniProt Q86WV6)”, which “probe-labelled cysteine peptide fold change” value is on record?
**A.** -0.043

**Q.** With “TMED4_Q7Z7H5_41_CFIEEIPDETMVIGNYR (UniProt Q7Z7H5)” as the target, how does the “probe-labelled cysteine peptide fold change” value read?
**A.** 0.283

**Q.** For “TNPO1_Q92973_164_ICEDSAEILDSDVLDRPLNIMIPK (UniProt Q92973)”, which “probe-labelled cysteine peptide fold change” value is on record?
**A.** -0.0355

**Q.** With “TOP1_P11387_504+505_EEGETADTVGCCSLR (UniProt P11387)” as the target, how does the “probe-labelled cysteine peptide fold change” value read?
**A.** 0.122

**Q.** How did the “probe-labelled cysteine peptide fold change” value turn out when “TOR2A_Q5JU69_271_HCVLNELAQLGLEPR (UniProt Q5JU69)” was run?
**A.** 0.187

**Q.** With “TMEM131L_A2VDJ0_352_IASFTCK (UniProt A2VDJ0)” as the target, how does the “probe-labelled cysteine peptide fold change” value read?
**A.** 0.0434

**Q.** Which “probe-labelled cysteine peptide fold change” value does the source give for “TONSL_Q96HA7_231_ECAHTMR (UniProt Q96HA7)” here?
**A.** 0.184

**Q.** How did the “probe-labelled cysteine peptide fold change” value turn out when “TOPBP1_Q92547_1200_QAVCDPGNIR (UniProt Q92547)” was run?
**A.** -0.182

**Q.** With “TMED8_Q6PL24_161_KVSPPLMAPPCIWTFAK (UniProt Q6PL24)” as the target, how does the “probe-labelled cysteine peptide fold change” value read?
**A.** -0.371

**Q.** How did the “probe-labelled cysteine peptide fold change” value turn out when “TM9SF4_Q92544_100+104_KCEVLCSQSNKPVTLTVEQSR (UniProt Q92544)” was run?
**A.** -0.296
